According to paper PMC5346764:
Results are given in words; binding and its absence hold for the method and conditions named. Binding seen in cells or lysates may run through a third protein. Some entries that bind do so weakly or less than the wild type.

By UniProt entry, the sequences of proteins in these tests, tags left out.
UniProt O43663: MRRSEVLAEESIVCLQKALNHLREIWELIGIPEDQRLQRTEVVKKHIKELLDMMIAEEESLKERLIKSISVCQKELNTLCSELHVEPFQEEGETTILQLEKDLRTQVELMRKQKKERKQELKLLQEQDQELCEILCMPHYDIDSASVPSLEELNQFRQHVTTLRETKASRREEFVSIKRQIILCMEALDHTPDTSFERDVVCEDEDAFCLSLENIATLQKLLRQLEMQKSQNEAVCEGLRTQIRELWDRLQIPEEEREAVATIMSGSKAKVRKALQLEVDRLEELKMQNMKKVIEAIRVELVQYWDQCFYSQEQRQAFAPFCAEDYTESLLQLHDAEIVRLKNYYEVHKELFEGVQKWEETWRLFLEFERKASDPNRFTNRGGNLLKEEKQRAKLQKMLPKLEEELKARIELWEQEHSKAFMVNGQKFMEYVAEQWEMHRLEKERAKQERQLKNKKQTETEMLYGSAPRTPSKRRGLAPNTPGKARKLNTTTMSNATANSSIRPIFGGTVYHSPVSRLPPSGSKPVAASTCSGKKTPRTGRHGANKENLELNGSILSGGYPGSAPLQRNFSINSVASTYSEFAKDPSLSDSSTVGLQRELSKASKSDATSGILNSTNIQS
UniProt Q02224: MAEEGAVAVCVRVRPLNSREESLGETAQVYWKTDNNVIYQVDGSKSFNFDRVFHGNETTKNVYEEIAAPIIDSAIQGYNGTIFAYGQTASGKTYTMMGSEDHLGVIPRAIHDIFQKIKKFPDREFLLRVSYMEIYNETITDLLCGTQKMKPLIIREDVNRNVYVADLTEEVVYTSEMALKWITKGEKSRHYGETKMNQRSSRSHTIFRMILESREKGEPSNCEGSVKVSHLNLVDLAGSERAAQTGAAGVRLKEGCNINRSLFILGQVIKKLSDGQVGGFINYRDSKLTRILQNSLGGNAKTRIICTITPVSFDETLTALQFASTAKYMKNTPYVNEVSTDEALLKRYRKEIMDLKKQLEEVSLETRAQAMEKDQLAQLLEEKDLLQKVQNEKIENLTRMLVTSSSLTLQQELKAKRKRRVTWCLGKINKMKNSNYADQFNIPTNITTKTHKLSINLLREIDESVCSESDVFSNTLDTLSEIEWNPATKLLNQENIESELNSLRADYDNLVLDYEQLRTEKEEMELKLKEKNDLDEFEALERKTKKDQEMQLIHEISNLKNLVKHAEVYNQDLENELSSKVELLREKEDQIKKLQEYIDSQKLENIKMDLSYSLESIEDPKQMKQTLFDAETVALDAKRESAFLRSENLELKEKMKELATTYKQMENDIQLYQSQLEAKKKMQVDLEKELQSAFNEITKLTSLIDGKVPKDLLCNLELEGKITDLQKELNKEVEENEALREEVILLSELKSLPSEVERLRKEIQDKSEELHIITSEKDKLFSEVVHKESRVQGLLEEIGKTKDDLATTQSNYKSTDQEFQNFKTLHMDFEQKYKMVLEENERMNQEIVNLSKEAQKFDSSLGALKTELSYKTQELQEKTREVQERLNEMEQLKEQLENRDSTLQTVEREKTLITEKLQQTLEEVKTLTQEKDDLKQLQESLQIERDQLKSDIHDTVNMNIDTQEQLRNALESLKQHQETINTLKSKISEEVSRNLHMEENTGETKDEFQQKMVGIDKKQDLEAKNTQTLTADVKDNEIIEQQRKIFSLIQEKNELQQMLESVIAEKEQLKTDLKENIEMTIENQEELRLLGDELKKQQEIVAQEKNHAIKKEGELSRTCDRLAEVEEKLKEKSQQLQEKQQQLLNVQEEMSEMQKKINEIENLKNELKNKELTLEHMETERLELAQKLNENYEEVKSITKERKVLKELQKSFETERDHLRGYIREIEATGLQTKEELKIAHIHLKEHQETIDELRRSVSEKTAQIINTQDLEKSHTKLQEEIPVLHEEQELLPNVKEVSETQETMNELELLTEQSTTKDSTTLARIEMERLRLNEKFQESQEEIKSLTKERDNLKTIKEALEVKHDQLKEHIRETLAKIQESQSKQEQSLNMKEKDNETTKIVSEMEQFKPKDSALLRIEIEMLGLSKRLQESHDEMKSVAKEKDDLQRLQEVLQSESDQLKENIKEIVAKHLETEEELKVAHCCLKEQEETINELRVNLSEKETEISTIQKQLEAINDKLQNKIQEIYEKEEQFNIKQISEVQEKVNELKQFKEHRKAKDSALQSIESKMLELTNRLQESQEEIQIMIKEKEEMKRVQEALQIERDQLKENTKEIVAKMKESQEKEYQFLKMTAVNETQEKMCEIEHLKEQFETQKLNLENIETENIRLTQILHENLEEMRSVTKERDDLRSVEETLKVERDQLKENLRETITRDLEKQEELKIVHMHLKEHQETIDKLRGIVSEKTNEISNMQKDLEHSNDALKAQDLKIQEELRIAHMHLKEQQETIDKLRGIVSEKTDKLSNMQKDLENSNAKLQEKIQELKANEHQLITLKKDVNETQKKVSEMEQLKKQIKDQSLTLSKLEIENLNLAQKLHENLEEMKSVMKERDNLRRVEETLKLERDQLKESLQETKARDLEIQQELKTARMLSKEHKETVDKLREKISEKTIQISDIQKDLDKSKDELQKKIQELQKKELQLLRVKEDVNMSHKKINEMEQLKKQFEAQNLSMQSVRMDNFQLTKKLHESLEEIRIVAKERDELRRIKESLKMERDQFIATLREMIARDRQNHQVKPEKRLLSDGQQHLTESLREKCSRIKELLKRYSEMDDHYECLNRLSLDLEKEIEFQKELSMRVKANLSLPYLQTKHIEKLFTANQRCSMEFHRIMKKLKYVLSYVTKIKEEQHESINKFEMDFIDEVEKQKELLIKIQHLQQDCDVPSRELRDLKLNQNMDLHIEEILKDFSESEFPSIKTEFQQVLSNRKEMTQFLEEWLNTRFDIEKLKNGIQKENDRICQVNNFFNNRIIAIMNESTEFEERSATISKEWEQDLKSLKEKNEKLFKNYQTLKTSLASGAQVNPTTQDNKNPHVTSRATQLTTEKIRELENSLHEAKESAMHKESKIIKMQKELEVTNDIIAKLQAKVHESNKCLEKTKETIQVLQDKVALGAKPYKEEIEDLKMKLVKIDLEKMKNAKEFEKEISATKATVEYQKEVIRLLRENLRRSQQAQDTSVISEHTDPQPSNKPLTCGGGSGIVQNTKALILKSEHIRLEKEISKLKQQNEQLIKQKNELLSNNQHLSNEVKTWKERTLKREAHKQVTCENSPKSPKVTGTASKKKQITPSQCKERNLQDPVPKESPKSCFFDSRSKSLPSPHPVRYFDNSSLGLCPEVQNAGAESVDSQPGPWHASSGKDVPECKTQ

Molecular target: recombinant GST-tagged full-length PRC1 (UniProt O43663)
Assay: pull-down; GST pull-down: GST-tagged PRC1 as bait, 293T cell lysate, with or without added microtubules; immunoblot with anti-CENP-E, anti-GST or anti-alpha-tubulin; only the target purified

- binding: binds
Substance: endogenous centromere-associated protein-E (CENP-E) (from UniProt Q02224 1-2701)
